The results are deposited in PubChem (AID1053133; Broad Institute, 2014).

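Plate-reader measure of the Venus reporter marking one vaccinia stage in infected cells (the cell line is not named here); read time unknown.
The test concentration is not given here.
Percent change in Venus reporter signal; lower (more negative) values mean stronger inhibition of that viral stage.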

Values are in %.
How 0% and 100% were set is not given here.
Common to all entries: measured here: Venus reporter, other viral stage.
This is a side read-out of the assay, for part of the compounds, not drawn at random.

* CC(C)c1cn(CC[C@@H]2CC[C@@H](NC(=O)Nc3cc(Cl)cc(Cl)c3)[C@H](CO)O2)nn1 : activity change (Venus) -29.92%
* C[C@@H]1CN([C@@H](C)CO)S(=O)(=O)c2ccc(C#CC(C)(C)O)cc2O[C@@H]1CN(C)Cc1ccc(-c2ccccc2)cc1 : activity change (Venus) -63.08%
* C[C@H]1CN([C@@H](C)CO)S(=O)(=O)c2ccc(C#Cc3ccccc3F)cc2O[C@H]1CN(C)C : activity change (Venus) -65.64%
* COc1ccc(CN(C)C[C@@H]2OCCCC[C@H](C)Oc3ccc(NC(=O)c4ccccc4)cc3C(=O)N([C@@H](C)CO)C[C@@H]2C)cc1 : activity change (Venus) -40.01%
* Cc1noc(C)c1NC(=O)Nc1ccc2c(c1)C(=O)N([C@@H](C)CO)C[C@@H](C)[C@H](CN(C)Cc1ccc(Cl)c(Cl)c1)OCCCC[C@@H](C)O2 : activity change (Venus) -64.52%
* N#C[C@@H]1[C@H](c2ccc(C#Cc3ccccc3F)cc2)[C@@H](CO)N1C(=O)c1cccnc1 : activity change (Venus) -35.89%
* COc1ccc(CN(C)C[C@H]2OCCCC[C@@H](C)Oc3ccc(NC(=O)Nc4ccc(C(F)(F)F)cc4)cc3C(=O)N([C@@H](C)CO)C[C@@H]2C)cc1 : activity change (Venus) -56.85%
* C[C@@H]1CN([C@H](C)CO)C(=O)Cc2cc(NC(=O)CCC(F)(F)F)ccc2O[C@@H]1CN(C)Cc1ccc(Cl)c(Cl)c1 : activity change (Venus) -46.73%
* CCN(C[C@@H]1N[C@@H](CO)[C@@H]1c1ccc(C2=CCCC2)cc1)C(=O)c1cccnc1 : activity change (Venus) -34.03%
* C[C@@H]1CCCCO[C@H](CN(C)Cc2ccc3c(c2)OCO3)[C@H](C)CN([C@H](C)CO)C(=O)c2cc(NS(=O)(=O)c3ccc(Cl)cc3)ccc2O1 : activity change (Venus) -58.33%
* Cc1ccc(-c2ccc([C@@H]3[C@@H](CO)N4C(=O)CN(C(=O)NC(C)C)C[C@H]34)cc2)cc1 : activity change (Venus) -41.83%
* CC(C)C#Cc1ccc([C@@H]2[C@H](CO)N3CCCCN(C(=O)c4ccc5c(c4)OCO5)C[C@@H]23)cc1 : activity change (Venus) -21.4%
* CCCC#Cc1ccc2c(c1)O[C@@H](CN(C)C(=O)c1ccccc1F)[C@H](C)CN([C@@H](C)CO)S2(=O)=O : activity change (Venus) -59.7%
* C[C@H](CO)N1C[C@H](C)[C@H](CN(C)Cc2ccc3c(c2)OCO3)Oc2ccc(NC(=O)Nc3ccc(C(F)(F)F)cc3)cc2CC1=O : activity change (Venus) -26.14%
* C[C@H](CO)N1C[C@H](C)[C@H](CN(C)Cc2ccc(Cl)c(Cl)c2)Oc2c(NS(=O)(=O)c3ccc(Cl)cc3)cccc2C1=O : activity change (Venus) -44.52%
* COc1cccc(S(=O)(=O)Nc2ccc3c(c2)[C@@H]2C[C@@H](CC(=O)NCc4ccc(Cl)cc4)O[C@@H](CO)[C@@H]2O3)c1 : activity change (Venus) -47.62%
* CCC(=O)N(C)C[C@H]1[C@@H](c2ccc(-c3cccc(F)c3)cc2)[C@@H](CO)N1C(C)=O : activity change (Venus) -27.11%
* COc1ccc(CN(C)C[C@@H]2OCCCC[C@@H](C)Oc3ccc(NC(=O)C4CCCCC4)cc3C(=O)N([C@@H](C)CO)C[C@@H]2C)cc1 : activity change (Venus) -49.33%
* CO[C@H](CN(C)S(=O)(=O)c1ccc(Cl)cc1)[C@@H](C)CN([C@H](C)CO)S(=O)(=O)c1cccc(Cl)c1 : activity change (Venus) -37.1%
* C[C@@H]1CN([C@@H](C)CO)C(=O)c2cc(NS(=O)(=O)c3ccc(F)cc3)ccc2O[C@H]1CN(C)Cc1ccc(Cl)c(Cl)c1 : activity change (Venus) -32.76%
* O=C(c1ccccc1)N1CC(=O)N2[C@H](C1)[C@H](c1ccc(C#Cc3ccccc3)cc1)[C@@H]2CO : activity change (Venus) -44.72%
* COc1ccc([Si](C)(C)[C@@H]2[C@@H](CC(=O)N3Cc4ccccc4C[C@H]3CO)O[C@]3(C(=O)N(C)c4c(Br)cc(C)cc43)[C@H]2C)cc1 : activity change (Venus) -41.66%

For reference, 2 entries once more:

With N#C[C@@H]1[C@H](c2ccc(C#Cc3ccccc3F)cc2)[C@@H](CO)N1C(=O)c1cccnc1 the assay gave activity change (Venus) -35.89%.
With COc1ccc(CN(C)C[C@@H]2OCCCC[C@H](C)Oc3ccc(NC(=O)c4ccccc4)cc3C(=O)N([C@@H](C)CO)C[C@@H]2C)cc1 the assay gave activity change (Venus) -40.01%.